# Measurements taken from the supplement of paper PMC8728848.
# The list shows a part of the results.
# B1: pullulanase (Streptococcus pyogenes), Q8KLP1 (protein)
# chain: MKKKVNQGSKRYQYLLKKWGIGFVIAATGTVMLGCIPSILTHQVAAKTIVGLARDEAQQGDGNAKSGDGFQSSSKEAKPVLDSSSANPASIAEHHLRMHFKTLPAGESLGSLGLWVWGDVDQPSKDWPNGAITMTKAKKDDYGYYLDVPLAAKHRQQVSYLINNKAGENLSKDQHIPLLTPKMNEVWIDENYHAHAYRPLKKGYLRINYHNQSGHYDNLAVWTFKDVKTPTTDWPNGLDLSHKGPYGAYVDVPLKEGANEIGFLILDKSKTGDAIKVQPKDYLFKELDNHTQVFVKDTDPKVYNNPYYIDQVSLKGAEQTTPNEIKAIFTTLDGLDEDAVKQNIKITDKAGKTVAIDELTLDKDKSVMTLKGDFKAQGAVYTVTFGEVSQVARQSWQLKDKLYAYDGELGATLAKDGSVDLALWSPSADSVKVVVYDKQDQTKVVGQADLTKSDKGVWRAHLTSDSVKGISDYTGYYYLYEITRGQEKVMVLDPYAKSLAAWNDATATDDIKTAKAAFIDPSKLGPTGLDFAKINNFKKREDAIIYEAHVRDFTSDKALEGKLTHPFGTFSAFVEQLDYLKDLGVTHVQLLPVLSYFYANELDKTRSTAYTSSDNNYNWGYDPQHYFALSGMYSANPNDPALRIAELKNLVNEIHKRGMGVIFDVVYNHTARTYLFEDLEPNYYHFMNADGTARESFGGGRLGTTHAMSRRILVDSITYLTREFKVDGFRFDMMGDHDAAAIEQAFKAAKAINPNTIMIGEGWRTYQGDEGKKEIAADQDWMKATNTVGVFSDDIRNTLKSGFPNEGTAAFITGGAKNLEGLFKTIKAQPSNFEADAPGDVVQYIAAHDNLTLHDVIAKSINKDPKVAEEEIHKRIRLGNTMILTAQGTAFIHSGQEYGRTKQLLNPDYKTKVSDDKVPNKATLIDAVAQYPYFIHDSYDSSDAVNHFDWAKATDSIAHPISNQTKAYTQGLIALRRSTDAFTKATKAEVDRDVTLITQAGQDGIQQEDLIMGYQTVASNGDRYAVFVNADNKTRKVVLPQAYRYLLGAQVLADAEQVGVTAIAKPKGVQFTKEGLTIDGLTALVLKVSSKTANPSQQKSQTDNHQTKTPDGSKDLDKSLMTRPKRAKTNQKLPKTGEAPSKGLLAAGVALLLLAISLLMKRQKD
# How the values were obtained:
# Test in all cases: glycan array binding signal (z-score within array); higher = stronger binding
# Conditions in all cases: glycan notation: IUPAC condensed, linker removed
# [1] = target: Neu5Ac(a2-3)Gal(b1-4)[Fuc(a1-3)]GlcNAc(b1-3)GalNAc
# Outline: (§1)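 The Consortium for Functional Glycomics database supplied 3228 glycan arrays, of which those lacking an available protein sequence were dropped. The binding signal, a within-array Z-score, was averaged across arrays of the same protein sequence and across linkers. Negative scores can be read as non-binding.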
# [2] = target: Neu5Ac(a2-3)Gal(b1-4)[Fuc(a1-3)]GlcNAc(b1-6)[Gal(b1-3)]GalNAc
# Outline: as §1
# [3] = target: Neu5Ac(a2-3)Gal(b1-4)[Fuc(a1-3)]GlcNAc(b1-6)[Neu5Ac(a2-3)Gal(b1-3)]GalNAc
# Outline: as §1
# [4] = target: Neu5Ac(a2-3)Gal(b1-4)[Fuc(a1-3)]GlcNAc6S
# Outline: as §1
# [5] = target: Neu5Ac(a2-3)Gal6S(b1-4)GlcNAc
# Outline: as §1
# [6] = target: Neu5Ac(a2-3)Gal6S(b1-4)[Fuc(a1-3)]GlcNAc
# Outline: as §1
# Neu5Ac(a2-3)GalNAc = target: Neu5Ac(a2-3)GalNAc
# Outline: as §1
# [7] = target: Neu5Ac(a2-3)GalNAc(b1-4)GlcNAc
# Outline: as §1
# [8] = target: Neu5Ac(a2-3)[GalNAc(b1-4)]Gal(b1-4)Glc
# Outline: as §1
# [9] = target: Neu5Ac(a2-3)[GalNAc(b1-4)]Gal(b1-4)GlcNAc
# Outline: as §1
# [10] = target: Neu5Ac(a2-3)[GalNAc(b1-4)]Gal(b1-4)GlcNAc(b1-3)GalNAc
# Outline: as §1
# [11] = target: Neu5Ac(a2-3)[Neu5Ac(a2-6)]GalNAc
# Outline: as §1
# Neu5Ac(a2-6)Gal = target: Neu5Ac(a2-6)Gal
# Outline: as §1
# [12] = target: Neu5Ac(a2-6)Gal(b1-3)GlcNAc(b1-3)[Gal(b1-4)GlcNAc(b1-6)]Gal(b1-4)Glc
# Outline: as §1
# Neu5Ac(a2-6)Gal(b1-4)Glc = target: Neu5Ac(a2-6)Gal(b1-4)Glc
# Outline: as §1
# [13] = target: Neu5Ac(a2-6)Gal(b1-4)GlcNAc
# Outline: as §1
# [14] = target: Neu5Ac(a2-6)Gal(b1-4)GlcNAc(b1-2)Man(a1-3)Man(b1-4)GlcNAc(b1-4)GlcNAc
# Outline: as §1
# [15] = target: Neu5Ac(a2-6)Gal(b1-4)GlcNAc(b1-2)Man(a1-3)[Gal(b1-4)GlcNAc(b1-2)Man(a1-6)]Man(b1-4)GlcNAc(b1-4)GlcNAc
# Outline: as §1
# [16] = target: Neu5Ac(a2-6)Gal(b1-4)GlcNAc(b1-2)Man(a1-3)[GlcNAc(b1-2)Man(a1-6)]Man(b1-4)GlcNAc(b1-4)GlcNAc
# Outline: as §1
# [17] = target: Neu5Ac(a2-6)Gal(b1-4)GlcNAc(b1-2)Man(a1-3)[GlcNAc(b1-2)Man(b1-4)GlcNAc(b1-2)Man(a1-6)]Man(b1-4)GlcNAc(b1-4)GlcNAc
# Outline: as §1
# [18] = target: Neu5Ac(a2-6)Gal(b1-4)GlcNAc(b1-2)Man(a1-3)[Man(a1-6)]Man(b1-4)GlcNAc(b1-4)GlcNAc
# Outline: as §1
# [19] = target: Neu5Ac(a2-6)Gal(b1-4)GlcNAc(b1-2)Man(a1-3)[Neu5Ac(a2-6)Gal(b1-4)GlcNAc(b1-2)Man(a1-6)]Man(b1-4)GlcNAc(b1-4)GlcNAc
# Outline: as §1
# [20] = target: Neu5Ac(a2-6)Gal(b1-4)GlcNAc(b1-2)Man(a1-6)Man(b1-4)GlcNAc(b1-4)GlcNAc
# Outline: as §1
# [21] = target: Neu5Ac(a2-6)Gal(b1-4)GlcNAc(b1-2)Man(a1-6)[Gal(b1-4)GlcNAc(b1-2)Man(a1-3)]Man(b1-4)GlcNAc(b1-4)GlcNAc
# Outline: as §1
# [22] = target: Neu5Ac(a2-6)Gal(b1-4)GlcNAc(b1-2)Man(a1-6)[GlcNAc(b1-2)Man(a1-3)]Man(b1-4)GlcNAc(b1-4)GlcNAc
# Outline: as §1
# [23] = target: Neu5Ac(a2-6)Gal(b1-4)GlcNAc(b1-2)Man(a1-6)[Man(a1-3)]Man(b1-4)GlcNAc(b1-4)GlcNAc
# Outline: as §1
# [24] = target: Neu5Ac(a2-6)Gal(b1-4)GlcNAc(b1-3)Gal(b1-3)GlcNAc
# Outline: as §1
# [25] = target: Neu5Ac(a2-6)Gal(b1-4)GlcNAc(b1-3)Gal(b1-4)GlcNAc
# Outline: as §1
# [26] = target: Neu5Ac(a2-6)Gal(b1-4)GlcNAc(b1-3)Gal(b1-4)GlcNAc(b1-3)Gal(b1-4)GlcNAc
# Outline: as §1
# [27] = target: Neu5Ac(a2-6)Gal(b1-4)GlcNAc(b1-3)Gal(b1-4)[Fuc(a1-3)]GlcNAc(b1-3)Gal(b1-4)[Fuc(a1-3)]GlcNAc
# Outline: as §1
# [28] = target: Neu5Ac(a2-6)Gal(b1-4)GlcNAc(b1-3)GalNAc
# Outline: as §1
# [29] = target: Neu5Ac(a2-6)Gal(b1-4)GlcNAc6S
# Outline: as §1
# Neu5Ac(a2-6)GalNAc = target: Neu5Ac(a2-6)GalNAc
# Outline: as §1
# [30] = target: Neu5Ac(a2-6)GalNAc(b1-4)GlcNAc
# Outline: as §1
# [31] = target: Neu5Ac(a2-6)GlcNAc(b1-4)GlcNAc
# Outline: as §1
# [32] = target: Neu5Ac(a2-6)GlcNAc(b1-4)GlcNAc(b1-4)GlcNAc
# Outline: as §1
# Neu5Ac(a2-8)Neu5Ac = target: Neu5Ac(a2-8)Neu5Ac
# Outline: as §1
# [33] = target: Neu5Ac(a2-8)Neu5Ac(a2-3)Gal(b1-4)Glc
# Outline: as §1
# [34] = target: Neu5Ac(a2-8)Neu5Ac(a2-3)[Gal(b1-3)GalNAc(b1-4)]Gal(b1-4)Glc
# Outline: as §1
# [35] = target: Neu5Ac(a2-8)Neu5Ac(a2-3)[GalNAc(b1-4)]Gal(b1-4)Glc
# Outline: as §1
# [36] = target: Neu5Ac(a2-8)Neu5Ac(a2-8)Neu5Ac
# Outline: as §1
# [37] = target: Neu5Ac(a2-8)Neu5Ac(a2-8)Neu5Ac(a2-3)Gal(b1-4)Glc
# Outline: as §1
# [38] = target: Neu5Ac(a2-8)Neu5Ac(a2-8)Neu5Ac(a2-3)[GalNAc(b1-4)]Gal(b1-4)Glc
# Outline: as §1
# [39] = target: Neu5Ac(a2-8)Neu5Ac(a2-8)Neu5Ac(a2-8)Neu5Ac(a2-3)[GalNAc(b1-4)]Gal(b1-4)Glc
# Outline: as §1
# [40] = target: Neu5Ac(b2-6)Gal(b1-4)GlcNAc
# Outline: as §1
# Neu5Ac(b2-6)GalNAc = target: Neu5Ac(b2-6)GalNAc
# Outline: as §1
# [41] = target: Neu5Ac9Ac(a2-3)Gal(b1-3)GlcNAc
# Outline: as §1
# [42] = target: Neu5Ac9Ac(a2-3)Gal(b1-4)GlcNAc
# Outline: as §1
# [43] = target: Neu5Ac9Ac(a2-6)Gal(b1-4)GlcNAc
# Outline: as §1
# [44] = target: Neu5Gc(a2-3)Gal(b1-3)GlcNAc
# Outline: as §1
# [45] = target: Neu5Gc(a2-3)Gal(b1-3)[Fuc(a1-4)]GlcNAc
# Outline: as §1
# Neu5Gc(a2-3)Gal(b1-4)Glc = target: Neu5Gc(a2-3)Gal(b1-4)Glc
# Outline: as §1
# [46] = target: Neu5Gc(a2-3)Gal(b1-4)GlcNAc
# Outline: as §1
# [47] = target: Neu5Gc(a2-3)Gal(b1-4)[Fuc(a1-3)]GlcNAc
# Outline: as §1
# [48] = target: Neu5Gc(a2-6)Gal(b1-4)GlcNAc
# Outline: as §1
# Neu5Gc(a2-6)GalNAc = target: Neu5Gc(a2-6)GalNAc
# Outline: as §1
# [49] = target: Neu5Gc(b2-6)Gal(b1-4)GlcNAc
# Outline: as §1
binder,measurement,setting,value
B1,glycan array binding signal (z-score),[1],2.87
same,glycan array binding signal (z-score),[2],1.57
same,glycan array binding signal (z-score),[3],-0.187
same,glycan array binding signal (z-score),[4],0.014
same,glycan array binding signal (z-score),[5],-0.777
same,glycan array binding signal (z-score),[6],-0.751
same,glycan array binding signal (z-score),Neu5Ac(a2-3)GalNAc,0.308
same,glycan array binding signal (z-score),[7],-1.38
same,glycan array binding signal (z-score),[8],1.41
same,glycan array binding signal (z-score),[9],-0.879
same,glycan array binding signal (z-score),[10],-1.29
same,glycan array binding signal (z-score),[11],-0.215
same,glycan array binding signal (z-score),Neu5Ac(a2-6)Gal,2.44
same,glycan array binding signal (z-score),[12],-1.49
same,glycan array binding signal (z-score),Neu5Ac(a2-6)Gal(b1-4)Glc,1.43
same,glycan array binding signal (z-score),[13],2.52
same,glycan array binding signal (z-score),[14],-1.49
same,glycan array binding signal (z-score),[15],1.12
same,glycan array binding signal (z-score),[16],0.206
same,glycan array binding signal (z-score),[17],0.099
same,glycan array binding signal (z-score),[18],-1.07
same,glycan array binding signal (z-score),[19],0.41
same,glycan array binding signal (z-score),[20],-1.2
same,glycan array binding signal (z-score),[21],-1.02
same,glycan array binding signal (z-score),[22],1.49
same,glycan array binding signal (z-score),[23],-0.542
same,glycan array binding signal (z-score),[24],-0.657
same,glycan array binding signal (z-score),[25],-0.052
same,glycan array binding signal (z-score),[26],0.583
same,glycan array binding signal (z-score),[27],-0.115
same,glycan array binding signal (z-score),[28],-0.473
same,glycan array binding signal (z-score),[29],-1.16
same,glycan array binding signal (z-score),Neu5Ac(a2-6)GalNAc,-1.58
same,glycan array binding signal (z-score),[30],0.245
same,glycan array binding signal (z-score),[31],-0.594
same,glycan array binding signal (z-score),[32],0.142
same,glycan array binding signal (z-score),Neu5Ac(a2-8)Neu5Ac,-0.894
same,glycan array binding signal (z-score),[33],0.291
same,glycan array binding signal (z-score),[34],-1.06
same,glycan array binding signal (z-score),[35],-0.945
same,glycan array binding signal (z-score),[36],-0.738
same,glycan array binding signal (z-score),[37],-0.462
same,glycan array binding signal (z-score),[38],-0.523
same,glycan array binding signal (z-score),[39],0.92
same,glycan array binding signal (z-score),[40],-0.587
same,glycan array binding signal (z-score),Neu5Ac(b2-6)GalNAc,1.95
same,glycan array binding signal (z-score),[41],-0.089
same,glycan array binding signal (z-score),[42],-0.987
same,glycan array binding signal (z-score),[43],-0.117
same,glycan array binding signal (z-score),[44],1.28
same,glycan array binding signal (z-score),[45],-1.31
same,glycan array binding signal (z-score),Neu5Gc(a2-3)Gal(b1-4)Glc,-0.236
same,glycan array binding signal (z-score),[46],-1.28
same,glycan array binding signal (z-score),[47],0.149
same,glycan array binding signal (z-score),[48],0.21
same,glycan array binding signal (z-score),Neu5Gc(a2-6)GalNAc,0.492
same,glycan array binding signal (z-score),[49],-0.183

# For convenience, part of the list above:
binder,measurement,setting,value
B1,glycan array binding signal (z-score),[41],-0.089
same,glycan array binding signal (z-score),[42],-0.987
same,glycan array binding signal (z-score),[43],-0.117
same,glycan array binding signal (z-score),[44],1.28
